Measured values from paper PMC5999948.
No constants are given. Whether binding was seen depends on the method and setting. Binding seen in cells or lysates may run through a third protein. Binding can be weak; no strength is given.

Target: T1, Parkin (mouse (endogenous in SN4741)) (UniProt Q9WVS6)
T1 sequence: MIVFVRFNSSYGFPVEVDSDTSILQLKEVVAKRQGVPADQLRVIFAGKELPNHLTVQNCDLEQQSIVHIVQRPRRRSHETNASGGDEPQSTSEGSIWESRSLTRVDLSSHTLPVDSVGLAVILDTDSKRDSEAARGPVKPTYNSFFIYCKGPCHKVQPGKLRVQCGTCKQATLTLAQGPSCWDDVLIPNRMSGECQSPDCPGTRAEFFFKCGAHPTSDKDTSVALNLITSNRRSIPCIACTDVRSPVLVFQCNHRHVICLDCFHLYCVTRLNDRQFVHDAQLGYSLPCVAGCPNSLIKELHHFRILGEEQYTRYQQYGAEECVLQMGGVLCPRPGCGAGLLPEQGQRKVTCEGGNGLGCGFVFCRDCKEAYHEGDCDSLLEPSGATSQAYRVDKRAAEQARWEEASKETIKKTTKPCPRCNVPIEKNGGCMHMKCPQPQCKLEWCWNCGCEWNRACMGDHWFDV
Test: co-IP; SN4741 cell lysates (empty vector or α-synuclein A53T, DMSO or SB203580); IP with anti-Parkin or anti-p38, respectively, immunoblot with the indicated antibodies; IgG control; lysis in 20 mM Tris-HCl pH 7.4, 150 mM NaCl, 1% Triton X-100; beads washed with RIPA

- binding: binds
Substance: p38-mitogen-activated protein kinase (mouse (endogenous in SN4741)) (enzyme)
